Measured values as given in patent US11273153B2, “MAPK inhibitors” (EverBrilliant Pharma Pty Ltd, priority 2014, dated 2022).
“Also recorded” adds a separate entry of the source. At least one structure is not confirmed: it was looked up by name or label, or the drawing left a doubt.

Amino acid sequences for entries named in this document (tags omitted).
UniProt Q16539, whole entry: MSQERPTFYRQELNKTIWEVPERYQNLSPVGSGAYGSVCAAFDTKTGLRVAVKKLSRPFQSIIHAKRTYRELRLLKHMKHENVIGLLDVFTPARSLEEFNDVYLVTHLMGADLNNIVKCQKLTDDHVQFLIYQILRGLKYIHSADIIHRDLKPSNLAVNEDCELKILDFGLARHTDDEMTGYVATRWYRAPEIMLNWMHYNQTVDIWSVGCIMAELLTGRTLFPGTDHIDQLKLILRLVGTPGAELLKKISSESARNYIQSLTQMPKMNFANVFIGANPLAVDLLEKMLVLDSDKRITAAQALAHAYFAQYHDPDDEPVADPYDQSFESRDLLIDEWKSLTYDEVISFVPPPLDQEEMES

Legend:
[1] = system: IL-6 gene expression in monocytic (THP-1) cells; experiment: LPS-induced IL-6 gene expression in THP-1 cells; format: cell-based; conditions: LPS-stimulated THP-1 cells
Method: Certain of the compounds were tested in a cellular assay for suppression of TNF-α and IL-6 gene expression in monocytic (THP-1) cells and the assay results are depicted in FIGS. 2 and 3. A published method was used whereby treating THP-1 cells with LPS induces TNF-α and IL-6 gene expression.

[2] = molecular target: p38α MAPK activation (phosphorylation) by MKK6 (Homo sapiens (Human), UniProt Q16539); experiment: In vitro activation assay (phosphorylation of p38α MAPK by MKK6, western blot); format: biochemical; conditions: 10 μM concentration
Method: The assay was analysed by immunoblotting using antibodies against pan p38 MAPK and activated (phosphorylated) p38α MAPK. […] The reaction is initiated by the addition of ATP and MKK6 and proceeds for 15 minutes.
The assay was analysed by immunoblotting using antibodies against pan p38 MAPK and phosphorylated p38α MAPK.
The reaction was started by the addition of active MKK6 (5 ng) and ATP (100 μM). After 30 minutes incubation at room temperature, the reaction was stopped with ethylenediaminetetraacetic acid (EDTA) (10 mM). Phosphorylation of p38 MAPK was analysed by Western blotting.
Reaction samples were mixed 1:1 with Laemmli loading buffer, including β-mercaptoethanol (Biorad). Samples were heated at 95° C. for 5 minutes and 80 ng of protein was resolved using sodium dodecyl sulfate polyacrylamide gel electrophoresis (SDS-PAGE) gels (Biorad) at 200 V for 90 minutes. Proteins were transferred (100 V, 1 hour) to a polyvinylidene difluoride (PVDF) membrane (Merck). Membranes were incubated in blocking buffer (5% skim milk in Tris-buffered saline with Tween 20 (TBST), 1 hour, room temperature) and washed in TBST. Membranes were incubated with primary antibodies against total and phosphorylated p38 MAPK (1:1,000, Cell Signaling Technology) overnight at 4° C. […]

[3] = system: neonatal rat cardiac myocytes (NCM); experiment: Neonatal rat cardiac myocyte hypertrophy (3H-leucine incorporation); format: cell-based
Method: Neonatal rat cardiac myocyte (NCM) hypertrophy was determined by ^3H-leucine incorporation following a published protocol on the above synthesised compounds using either Angiotensin II (AngII, 100 nM) or TNF-α (10 ng/mL) as the stimulus. ^3H levels were counted in scintillation fluid on a beta counter to determine levels of ^3H-leucine incorporation.

[4] = system: rat mesangial cells (RMC); experiment: Rat mesangial cell collagen synthesis (3H-proline incorporation); format: cell-based; conditions: stimulus AngII 100 nM, IS 10 μM, PCS 100 μM or MCS 100 μM
[5] = system: TNF-α gene expression in monocytic (THP-1) cells; experiment: LPS-induced TNF-α gene expression in THP-1 cells; format: cell-based; conditions: LPS-stimulated THP-1 cells
[6] = system: neonatal rat cardiac fibroblasts (NCF); experiment: Neonatal rat cardiac fibroblast collagen synthesis (3H-proline incorporation); format: cell-based; conditions: AngII 100 nM stimulus
Method: The effect of the compounds on neonatal rat cardiac fibroblasts (NCF) collagen synthesis was determined by measuring ^3H-proline incorporation following a published protocol using AngII (100 nM) as the stimulus. ^3H-proline incorporation was determined in the same way as the cardiac myocyte hypertrophy assay described above.

OCCC#Cc1cc(-c2ccncc2)c(-c2ccc(F)cc2)s1 [Compound 4.5, 4-(5-(4-Fluorophenyl)-4-(pyridin-4-yl)thiophen-2-yl)but-3-yn-1-ol]
inhibition of LPS-induced IL-6 gene expression [1]: strong inhibition
inhibition of p38α MAPK activation (phosphorylation) [2]: inhibition of p38α MAPK activation
suppression of AngII-induced NCM hypertrophy ([3]; AngII 100 nM stimulus): suppression of NCM hypertrophy
suppression of TNF-α-induced NCM hypertrophy ([3]; TNF-α 10 ng/mL stimulus): suppression of NCM hypertrophy
inhibition of stimulated RMC collagen synthesis [4]: dose-dependent inhibition; also recorded: dose-dependently inhibited
inhibition of TNF-α gene expression [5]: inhibition of TNF-α gene expression at 1 μM concentration and higher
inhibition of AngII-stimulated NCF collagen synthesis [6]: dose-dependent inhibition
